Reference: patent EP0913089A1, “Synergistic herbicidal composition containing R-imazethapyr and R-imazapyr and method for controlling weeds therewith” (American Cyanamid Company, priority 1997, dated 1999)
At least one compound was matched to its structure with a doubt left.

Tests used:
IPOSS = test: Greenhouse postemergence herbicidal effect measured by fresh weight (Example 2); format: in vivo, Ipomoea spp.; conditions: for Ratio Racemic/R IPOSS: I50-racemic/I50-R-isomer; for % Fresh Wt. IPOSS: % of untreated check, approx. 3 weeks after treatment; for I50 IPOSS: rate giving 50% plant growth inhibition (fresh weight) vs untreated check, calculated by method of Seefeldt, Jensen and Fuerst
AMBEL = test: as above; format: in vivo, Ambrosia artemisiifolia, L.; conditions: for Ratio Racemic/R AMBEL: I50-racemic/I50-R-isomer; for % Fresh Wt. AMBEL: % of untreated check, approx. 3 weeks after treatment; for I50 AMBEL: rate giving 50% plant growth inhibition (fresh weight) vs untreated check, calculated by method of Seefeldt, Jensen and Fuerst

Row | Structure (SMILES) | Ratio Racemic/R IPOSS (IPOSS) | % Fresh Wt. IPOSS (IPOSS; Rate 2.68 g/ha) [%] | % Fresh Wt. IPOSS (IPOSS; Rate 5.36 g/ha) [%] | % Fresh Wt. IPOSS (IPOSS; Rate 10.72 g/ha) [%] | % Fresh Wt. IPOSS (IPOSS; Rate 21.44 g/ha) [%] | % Fresh Wt. IPOSS (IPOSS; Rate 42.88 g/ha) [%] | I50 IPOSS (IPOSS) [g/ha] | Ratio Racemic/R AMBEL (AMBEL) | % Fresh Wt. AMBEL (AMBEL; Rate 2.68 g/ha) [%] | % Fresh Wt. AMBEL (AMBEL; Rate 5.36 g/ha) [%] | % Fresh Wt. AMBEL (AMBEL; Rate 10.72 g/ha) [%] | % Fresh Wt. AMBEL (AMBEL; Rate 21.44 g/ha) [%] | % Fresh Wt. AMBEL (AMBEL; Rate 42.88 g/ha) [%] | I50 AMBEL (AMBEL) [g/ha] | further results
1 | CC(C)[C@@]1(C)N=C(c2ncccc2C(=O)O)NC1=O [R-Imazapyr, R-imazapyr] | 1.51 | 57 | 33 | 27 | 17 | 13 | 2.12 | 1.04 | 76 | 56 | 30 | 7 | 4 | 5.94 | % Fresh Wt. IPOSS (IPOSS; Rate 1.34 g/ha): 76%; % Fresh Wt. IPOSS (IPOSS; Rate 32.16 g/ha): 11%; % Fresh Wt. AMBEL (AMBEL; Rate 1.34 g/ha): 111%; % Fresh Wt. AMBEL (AMBEL; Rate 32.16 g/ha): 2%
2 | CCc1cnc(C2=N[C@](C)(C(C)C)C(=O)N2)c(C(=O)O)c1 [R-Imazethapyr, R-imazethapyr] | 1.09 | 82 | 82 | 67 | 69 | 51 | 32.2 | 1.23 | 51 | 81 | 65 | 49 | 33 | 17.9 | % Fresh Wt. IPOSS (IPOSS; Rate 64.30 g/ha): 20%; % Fresh Wt. IPOSS (IPOSS; Rate 85.76 g/ha): 16%; % Fresh Wt. AMBEL (AMBEL; Rate 64.30 g/ha): 3%; % Fresh Wt. AMBEL (AMBEL; Rate 85.76 g/ha): 0%
